PubChem BioAssay AID258 (DTP/NCI, 2004)
Several values for one entry are separate records, joined by “and”; a condition that tells them apart may be missing. Identical values can stand only once. Inconclusive results and toxic doses are left out. How the source made its calls: active means survival T/C of 150% or more; inactive means T/C below 125% in these data.

Test system: CD2F1 mice, L1210 leukemia sc, survival T/C
Assay: NCI In Vivo Anticancer Drug Screen. Data for tumor model L1210 Leukemia (subcutaneous) in CD2F1 (CDF1) mice
Conditions: endpoint: median survival time, higher = longer survival
Protocol: The antitumor activity of compounds was measured in mice bearing transplantable tumors. Survival or tumor size were measured and the results are expressed as the measurement made in the treated group (T) divided by the measurement made in the vehicle treated control group (C). The tumor model used in this assay is L1210 Leukemia (subcutaneous) in CD2F1 (CDF1) mice

Measured: T/C

COc1c(O)cc2c(c1OC)-c1ccc(SC)c(=O)cc1C(NC(C)=O)CC2 (stereo unspecified)
inactive: dose: 0.31 mg/kg/injection, schedule: Q01DX009 (ip), vehicle: DMSO 110 % of control | dose: 0.63 mg/kg/injection, schedule: Q01DX009 (ip), vehicle: DMSO 110 % of control | dose: 1.25 mg/kg/injection, schedule: Q01DX009 (ip), vehicle: DMSO 111 % of control | dose: 2.5 mg/kg/injection, schedule: Q01DX009 (ip), vehicle: DMSO 106 % of control | dose: 5.0 mg/kg/injection, schedule: Q01DX009 (ip), vehicle: DMSO 104 % of control

COc1cc2c(c(OC)c1OC)-c1ccc(OC)c(=O)cc1[C@@H](N)CC2
inactive: dose: 0.62 mg/kg/injection, schedule: Q01DX009 (ip), vehicle: saline with Tween-80 = 100 % of control | dose: 0.62 mg/kg/injection, schedule: Q01DX009 (sc), vehicle: saline with Tween-80 = 103 % of control | dose: 0.62 mg/kg/injection, schedule: Q01DX009 (sc), vehicle: saline 106 % of control | dose: 1.25 mg/kg/injection, schedule: Q01DX009 (ip), vehicle: saline with Tween-80 = 105 % of control | dose: 1.25 mg/kg/injection, schedule: Q01DX009 (sc), vehicle: saline with Tween-80 = 108 % of control | dose: 1.25 mg/kg/injection, schedule: Q01DX009 (sc), vehicle: saline 116 % of control | dose: 2.5 mg/kg/injection, schedule: Q01DX009 (ip), vehicle: saline with Tween-80 = 110 % of control | dose: 2.5 mg/kg/injection, schedule: Q01DX009 (ip), vehicle: saline 120 % of control | dose: 2.5 mg/kg/injection, schedule: Q01DX009 (sc), vehicle: saline with Tween-80 = 123 % of control | dose: 2.5 mg/kg/injection, schedule: Q01DX009 (sc), vehicle: saline 118 % of control and 124 % of control | dose: 3.3 mg/kg/injection, schedule: Q01DX009 (sc), vehicle: saline 114 % of control | dose: 3.8 mg/kg/injection, schedule: Q01DX009 (sc), vehicle: saline 121 % of control | dose: 5.0 mg/kg/injection, schedule: Q01DX009 (sc), vehicle: saline 111 % of control | dose: 7.5 mg/kg/injection, schedule: Q01DX009 (ip), vehicle: saline 102 % of control | dose: 7.5 mg/kg/injection, schedule: Q01DX009 (sc), vehicle: saline 92 % of control | dose: 10.0 mg/kg/injection, schedule: Q01DX009 (ip), vehicle: saline 90 % of control | dose: 10.0 mg/kg/injection, schedule: Q01DX009 (sc), vehicle: saline 123 % of control | dose: 15.0 mg/kg/injection, schedule: Q01DX009 (sc), vehicle: saline 104 % of control | dose: 20.0 mg/kg/injection, schedule: Q01DX009 (ip), vehicle: saline with Tween-80 = 96 % of control | dose: 20.0 mg/kg/injection, schedule: Q01DX009 (sc), vehicle: saline 122 % of control | dose: 40.0 mg/kg/injection, schedule: Q01DX009 (sc), vehicle: saline 104 % of control
